# The whole screen tested about 350,000 compounds, of which about 1,200 (0.34%) were called active. Inconclusive means that the source gave no clear call. Such entries were picked first, then a sample of the others. The call rests on the fitted dose curve; in most records, active means well fitted inhibition curve with a large enough effect; inconclusive means small, poorly fitted or top-dose-only effect; inactive means no such curve, though single readings can be large or run the other way. A potency beside an inconclusive call is a rough fit, not a confirmed value.
# Protein sequences, listed by entry. Tags and fused reporters are not part of them.
# UniProt P27695, whole entry, looked up: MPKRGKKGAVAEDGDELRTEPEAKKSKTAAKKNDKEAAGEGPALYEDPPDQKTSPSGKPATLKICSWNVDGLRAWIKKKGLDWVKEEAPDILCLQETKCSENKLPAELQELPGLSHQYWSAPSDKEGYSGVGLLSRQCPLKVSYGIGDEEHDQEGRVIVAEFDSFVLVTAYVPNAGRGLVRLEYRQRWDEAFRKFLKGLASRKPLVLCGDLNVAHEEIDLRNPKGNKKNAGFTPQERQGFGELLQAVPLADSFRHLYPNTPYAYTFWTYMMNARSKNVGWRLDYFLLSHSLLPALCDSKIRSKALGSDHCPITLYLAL
# Target: DNA repair nuclease/redox regulator APEX1 (Homo sapiens) (UniProt P27695)
# Assay: qHTS Assay for Inhibitors of the Human Apurinic/apyrimidinic Endonuclease 1 (APE1); further: nearly all actives have a fitted effect of over 55% in size
# Settings: recombinant APE1, TAMRA/BHQ-2 abasic DNA cleavage fluorescence; series mostly up to 65.8 µM
# Procedure, shortened: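 Enzyme (0.75 nM final) and test compound are incubated 15 min at room temperature before adding 50 nM quenched THF abasic-site duplex. Cleavage dequenches TAMRA, followed at 525/598 nm over three reads one minute apart.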
# Potency means the concentration at half of the fitted maximal effect.
row,Structure (SMILES),Potency
1,O=C(CSc1nc(C(F)(F)F)cc(=O)[nH]1)NCc1ccc2c(c1)OCO2,"inconclusive: 29.9 µM [inhibitor, single point]"
2,CN(CC(=O)Nc1ccccc1Cl)C(=O)COC(=O)c1ccc([N+](=O)[O-])s1,"inconclusive: 23.8 µM [inhibitor, single point]"
3,Cc1cc(Cl)ccc1OC(C)C(=O)NCCc1ccc2c(c1)OCCO2 (configuration not stated),"inconclusive: 0.0089 µM [inhibitor, full curve, poor fit]"
4,COc1ccc(C(=O)N2CCSCC2)cc1OC1CCN(C(C)=O)CC1,"inconclusive: 8.44 µM [inhibitor, single point]"
5,COc1ccc2cc(OCC(=O)NNC(=O)Nc3ccc(F)cc3)ccc2c1,inactive
6,COC(=O)c1ccc(=O)c2nc3/c(=C/O)c(O)cc(=O)c3[nH]c12,"inconclusive: 28.2 µM [inhibitor, partial curve]"
7,Cn1c[n+](C)cc1-c1ccc(/C(N)=N/O)cc1,"inconclusive: 0.005 µM [inhibitor, full curve, poor fit]"
8,c1csc(Cn2c(-c3cccs3)nc3ccccc32)c1,"inconclusive: 22.4 µM [inhibitor, single point]"
9,CC(/C=C/c1cccc([N+](=O)[O-])c1)=N\NC(=O)c1ccncc1,"inconclusive: 0.282 µM [inhibitor, partial curve, poor fit]"
10,c1ccc2c(c1)ccc1ccccc12,inactive
11,CC(=O)c1c(C)[nH]c(C(=O)NCCC2=CCCCC2)c1C,"inconclusive: 8.91 µM [inhibitor, single point]"
12,O=C(CSc1ccc2nnc(-c3ccccc3)n2n1)NCc1ccco1,"inconclusive: 44.7 µM [inhibitor, single point]"
13,CCOC(=O)C1=C(N)Oc2ccc(Br)cc2[C@@H]1[C@@H](C#N)C(=O)OCC,"inconclusive: 44.7 µM [inhibitor, single point]"
14,Nc1[nH]ncc1N=Nc1ccc(Cl)cc1,"inconclusive: 2.82 µM [inhibitor, partial curve]"
15,O=C(Nc1ccccc1C(=O)NC1CC1)c1ccc([N+](=O)[O-])o1,"inconclusive: 11.9 µM [inhibitor, single point]"
16,O=C1c2ccccc2-c2onc3ccc(NCCCn4ccnc4)c1c23,active: 28.2 µM
17,CC(=O)Nc1ccc(C(=O)N/C(=C\c2ccccc2)C(=O)Nc2cccc(C(=O)O)c2)cc1,"inconclusive: 0.224 µM [inhibitor, full curve, poor fit]"
18,O=C(Cc1ccc(S(=O)(=O)N2CCCC2)s1)Nc1nc2c(s1)CCCC2,"inconclusive: 35.5 µM [inhibitor, single point]"
19,CC1=CC(C)(C)[N+](C)(C)c2ccc(C)cc21,"inconclusive: 6.31 µM [inhibitor, full curve, poor fit]"
20,CC1=CC2=NC(=O)/C(=C\c3cccn3CCOc3cc(C)ccc3C)C(=N)N2O1,"inconclusive: 0.0089 µM [inhibitor, full curve, poor fit]"
21,CCC(C)[C@@H](N)C(=O)O (some centres not stated),inactive
22,O=c1[nH]c2ccccc2c2nc3ccccn3c12,inactive
23,Cc1ccccc1NC(=S)Nc1cccc2cnccc12,"inconclusive: 7.94 µM [inhibitor, single point]"

# Copied from the entries so far, 16 compounds:
row,Structure (SMILES),Potency
5,COc1ccc2cc(OCC(=O)NNC(=O)Nc3ccc(F)cc3)ccc2c1,inactive
6,COC(=O)c1ccc(=O)c2nc3/c(=C/O)c(O)cc(=O)c3[nH]c12,"inconclusive: 28.2 µM [inhibitor, partial curve]"
7,Cn1c[n+](C)cc1-c1ccc(/C(N)=N/O)cc1,"inconclusive: 0.005 µM [inhibitor, full curve, poor fit]"
8,c1csc(Cn2c(-c3cccs3)nc3ccccc32)c1,"inconclusive: 22.4 µM [inhibitor, single point]"
9,CC(/C=C/c1cccc([N+](=O)[O-])c1)=N\NC(=O)c1ccncc1,"inconclusive: 0.282 µM [inhibitor, partial curve, poor fit]"
10,c1ccc2c(c1)ccc1ccccc12,inactive
11,CC(=O)c1c(C)[nH]c(C(=O)NCCC2=CCCCC2)c1C,"inconclusive: 8.91 µM [inhibitor, single point]"
12,O=C(CSc1ccc2nnc(-c3ccccc3)n2n1)NCc1ccco1,"inconclusive: 44.7 µM [inhibitor, single point]"
13,CCOC(=O)C1=C(N)Oc2ccc(Br)cc2[C@@H]1[C@@H](C#N)C(=O)OCC,"inconclusive: 44.7 µM [inhibitor, single point]"
14,Nc1[nH]ncc1N=Nc1ccc(Cl)cc1,"inconclusive: 2.82 µM [inhibitor, partial curve]"
15,O=C(Nc1ccccc1C(=O)NC1CC1)c1ccc([N+](=O)[O-])o1,"inconclusive: 11.9 µM [inhibitor, single point]"
16,O=C1c2ccccc2-c2onc3ccc(NCCCn4ccnc4)c1c23,active: 28.2 µM
17,CC(=O)Nc1ccc(C(=O)N/C(=C\c2ccccc2)C(=O)Nc2cccc(C(=O)O)c2)cc1,"inconclusive: 0.224 µM [inhibitor, full curve, poor fit]"
18,O=C(Cc1ccc(S(=O)(=O)N2CCCC2)s1)Nc1nc2c(s1)CCCC2,"inconclusive: 35.5 µM [inhibitor, single point]"
19,CC1=CC(C)(C)[N+](C)(C)c2ccc(C)cc21,"inconclusive: 6.31 µM [inhibitor, full curve, poor fit]"
20,CC1=CC2=NC(=O)/C(=C\c3cccn3CCOc3cc(C)ccc3C)C(=N)N2O1,"inconclusive: 0.0089 µM [inhibitor, full curve, poor fit]"

# Next results:

row,Structure (SMILES),Potency
1,COc1ccc(N2CCN(S(=O)(=O)c3ccc(-n4cnnn4)c(C)c3)CC2)cc1,"inconclusive: 25.1 µM [inhibitor, single point]"
2,CC1=C(C(=O)OCc2ccccc2)C(c2cccc(Cl)c2Cl)NC(=O)N1CCCCCC(=O)O (configuration not stated),inactive
3,O=C(O)CCC1OC(=O)C(O)=C1c1ccccc1 (configuration not stated),"inconclusive: 8.91 µM [inhibitor, single point]"
4,O=Cc1cccn1-c1ccccc1,"inconclusive: 39.8 µM [inhibitor, single point]"
5,Cc1cccc(N/N=C/c2ccccc2O)c1,"inconclusive: 39.8 µM [inhibitor, single point]"
6,CN(c1ccccc1)S(=O)(=O)c1cccc(C(=O)OCC(=O)NCc2ccco2)c1,"inconclusive: 3.16 µM [inhibitor, single point]"
7,C=CC[C@@H]1C=C[C@H](O/N=C(\C)CCN2CCCc3nc(C)c(C)cc32)[C@H](CO)O1,"inconclusive: 3.55 µM [inhibitor, single point]"
8,CC(COc1ccccc1)N1CCC(CO)(CCc2ccccc2)CC1 (configuration not stated),"inconclusive: 44.7 µM [inhibitor, single point]"
9,NNc1nc2c(Cl)cccc2s1,"inconclusive: 17.8 µM [inhibitor, partial curve, poor fit]"
10,CN1CCN(C(=O)CSc2nc(-c3cccs3)cc(-c3cccs3)c2C#N)CC1,"inconclusive: 20 µM [inhibitor, single point]"
11,O=C(COc1ccc2ccccc2c1)Nc1cccc(C(=O)Nc2ccccc2C(=O)O)c1,"inconclusive: 4.47 µM [inhibitor, single point]"
12,COc1ccc(C2=Nn3c(nnc3-c3ccc(OC)c(OC)c3)SC2)c(OC)c1,inactive
13,Cc1ccc(S(=O)(=O)NC(=O)c2ccc(-c3ccc(-c4ccccc4)cc3)o2)c(C)c1,inactive
14,C=CCOc1c(Cl)cc(CNc2ccc(N(C)C)cc2)cc1OC,inactive
15,CCn1c(=O)cc(OCC(=O)NCc2ccco2)c2ccccc21,"inconclusive: 35.5 µM [inhibitor, single point]"
16,COc1ccc(CC(=O)n2[nH]c(=O)ccc2=O)cc1OC,"inconclusive: 11.2 µM [inhibitor, partial curve, poor fit]"
17,O=C(c1ccc(Cl)c(S(=O)(=O)N2CCCCCC2)c1)N1CCCCC1,inactive
18,NNC(=O)COc1cccc(Oc2ccccc2)c1,"inconclusive: 17.8 µM [inhibitor, partial curve]"
19,COc1cc(OC)c2c(-c3cccc(-c4cccc(N)c4)c3)cc(=O)oc2c1,"inconclusive: 39.8 µM [inhibitor, single point]"
20,CCC(=O)Nc1cccc(C(=O)OC)c1,"inconclusive: 3.16 µM [inhibitor, single point]"
21,COc1ccc(CNc2ncnc3ccc(-c4ccc5c(c4)OCO5)cc23)c(OC)c1,inactive
22,CCOc1ccc(-n2c(COc3ccccc3)nnc2SCC(N)=O)cc1,"inconclusive: 1.12 µM [inhibitor, full curve, poor fit]"
23,CC(C)(C)n1ncc2c(=O)n(Cc3cc(Cl)ccc3Cl)cnc21,inactive

row,Structure (SMILES),Potency
1,CCN(CC)S(=O)(=O)c1cccc(N=Nc2sc(N)nc2C)c1,inactive
2,CCOC(=O)c1sc(NC(=O)c2cccc(S(=O)(=O)N3CCN(C)CC3)c2)cc1C,"inconclusive: 14.1 µM [inhibitor, single point]"
3,CC(C)C1COc2cc3oc(=O)ccc3cc2O1 (configuration not stated),"inconclusive: 0.0251 µM [inhibitor, full curve, poor fit]"
4,O=C(N[C@H]1C/C=C\C[C@H](CC(=O)N(CCO)Cc2ccccc2)C(=O)N[C@@H](c2ccccc2)COC1=O)OCC1c2ccccc2-c2ccccc21,"inconclusive: 11.9 µM [inhibitor, partial curve]"
5,CCOc1ccc2c(=O)c(Oc3ccccc3OCC)coc2c1,"inconclusive: 8.91 µM [inhibitor, single point]"
6,CCOC(=O)N1CCN(C(c2ccc(C)cc2)c2sc3nc(C)nn3c2O)CC1 (configuration not stated),"inconclusive: 14.1 µM [inhibitor, partial curve, poor fit]"
7,C=CCNC(=O)c1ccc(C2SCC(=O)N2Cc2ccco2)cc1 (configuration not stated),"inconclusive: 39.8 µM [inhibitor, single point]"
8,O=C(c1ccc(Cl)cc1)N1CCN(c2cccc3[nH]ccc23)CC1,"inconclusive: 35.5 µM [inhibitor, single point]"
9,Cc1ccc[n+](CC(=O)Nc2c(Cl)cc(Cl)cc2Cl)c1,"inconclusive: 1.78 µM [inhibitor, full curve]"
10,COC(=O)c1cccc(C23CC4(C2)[C@H](CN(Cc2ccc(C(F)(F)F)cc2)[C@@H]4c2ccccc2)C3c2ccc(C(F)(F)F)cc2)c1 (some centres not stated),"inconclusive: 44.7 µM [inhibitor, single point]"
11,NC(=O)c1c(NC(=O)CSc2nc3c(c(C(F)(F)F)n2)CCc2ccccc2-3)sc2c1CCCC2,"inconclusive: 44.7 µM [inhibitor, single point]"
12,CN(C)c1ncc2ncc(=O)n(CCc3ccccc3)c2n1,"inconclusive: 2.82 µM [inhibitor, full curve]"
13,Nc1cc2ccncc2c2ccccc12,"inconclusive: 3.16 µM [inhibitor, full curve]"
14,COc1ccc(-c2nnc(Nc3ccc(CC(N)=O)cc3)c3ccccc23)cc1,"inconclusive: 39.8 µM [inhibitor, single point]"
15,N#Cc1c(NC(=O)COC(=O)c2ccc(O)cc2O)sc2c1CCC2,active: 11.9 µM
16,CCOC(=O)CSc1nc(C)c2cccc(C)c2n1,"inconclusive: 8.91 µM [inhibitor, single point]"
17,O=c1c2ccccc2c(-c2n[nH]c(=S)o2)nn1Cc1ccccc1,inactive
18,Cc1ccc(CN=c2c([N+](=O)[O-])nn(-c3ccc(Cl)cc3)n2O)cc1,"inconclusive: 2.82 µM [inhibitor, partial curve]"
19,CN1C(C(=O)NCC2CC2)CC2Cn3c(nc4cc5ccccc5cc43)C21 (configuration not stated),active: 3.98 µM
20,O=C(Cc1cccc2ccccc12)NNC(=O)Nc1ccc(Cl)cc1,"inconclusive: 0.0891 µM [inhibitor, full curve]"
21,COC(=O)c1cc(Br)c(=O)n(Cc2ccc(OC)c(OC)c2)c1,inactive

# From PubChem BioAssay AID2517 (National Center for Advancing Translational Sciences (NCATS), 2010)
